The record followed here is patent US20220315908A1, “NOVEL GARDNERELLA ENDOLYSINS AND USES THEREOF” (priority 2019, published 2022).

The test system of one experiment is G. swidsinskii (Gv_23). Kind of experiment: MIC and MBC microbroth dilution. Type of experiment: cell-based, Gardnerella swidsinskii. Conditions: for MIC / MBC: Gardnerella swidsinskii; for MIC: 48 h. As for the experimental part: (§1) One of the main deficiencies in the treatment of BV is the high rate of recurrence in many women, which leads to repeated administration of antibiotics and concomitant destabilization of the microbiome and other side effects. The minimal inhibitory concentration (MIC) and minimal bactericidal concentration (MBC) on Gardnerella cells of the strains also used for the endolysin activity assays were then measured using the method described in Reference Example 6 and 7. […] Essentially, Gardnerella suspensions at 2.5×10^7 CFU/ml were incubated with the concentration of antibiotics as indicated and incubated for 48 h at 37° C. under anaerobic conditions. […] OD(610) was measured at the beginning and the end of the experiment. At the end of the experiment, 2 ul of each reaction mix was spotted on agar to determine the MBC.
(§2) The conditions under which MIC and MBC were measured are more rigorous than the standard.
(§3) Example 7—Activity assays of a representative (H2B10) of domain swapped endolysins on the growth in suspension of different Gardnerella strains. […] The conditions under which MBC was measured are more rigorous than the standard. […] In general, it is known, that antibiotics only insufficiently eradicate the Gardnerella biofilm, a hallmark of BV, which is one suspected reason for the reported very high recurrence rate of BV. Despite leaving residual viable biofilm, antibiotics wipe parts of the beneficial organisms of the vaginal microbiome which then opens an ecological niche for other pathogens, e.g. fungi.
(§4) Bacteria were plated from cryo stock on BD Choc Agar plates (Gardnerella) and incubated at 37° C. for 48 h under anaerobic conditions. Colonies were scraped from the plate, resuspended in Hardy Broth or NYC-III-HS-pH 5.0, and the suspension adjusted to OD (610 or 620 nm as indicated) 0.05. It has to be noted that two Tecan Microplate readers, having respectively a 610 nm or 620 nm filter, have been used interchangeably in the experiments. Although it doesn't make any difference for the experiments, the exact wavelength used is specified in each example. Antibiotics were prepared as 20× stocks for each of the required final concentrations. 95 μl of cell suspension was mixed with 5 μl antibiotics dilution in a 384-well plate. OD (610-620 as indicated) at the start of the reaction was measured, then the plate was incubated at 37° C. for 48 h under anaerobic conditions. After that, the OD (610-620 as indicated) was measured again for MIC determination, where MIC was defined as the lowest concentration of antibiotic where the OD (610-620 as indicated) was not above the level measured at the beginning of the experiment. After measuring OD, 2 μl of each well were spotted on a NYC-III+HS Agar plate. The plates were then incubated for further 48 h at 37° C. under anaerobic conditions. After incubation, cell growth on each spot was evaluated, and the MBC defined as the lowest concentration of antibiotics where no bacteria grew on the plate. The experiments were conducted in triplicate for each condition. In the second round of MIC and MBC experiments with antibiotics the Gardnerella cell suspension was adjusted to the McFarland standard 0.5 (approximately OD (610) 0.07) and then diluted 1:75 according to the CLSI (Clinical and Laboratory Standards Institute) standards. Antibiotics were prepared according to the CLSI standards and 50 μl of cell suspension was mixed in a 96-well plate with 50 μl antibiotics. Otherwise the MIC and MBC was determined as described above.
In general terms: Broth dilution looks for growth in wells or tubes with falling amounts of substance.

The subject of the next experiment is G. piotii (Gv_17). Kind of experiment: MIC and MBC microbroth dilution. Type of experiment: cell-based, Gardnerella piotii. Conditions: for MIC / MBC: Gardnerella piotii; for MIC: 48 h. As to the method: as §1, §2
as §4, with “above. For the MIC and MBC determination of the domain swapped endolysin H2B10 50 μl of Gardnerella cell suspension was mixed in a 96-well plate with 50 μl of H2B10 containing solution, which where serially diluted 1:1. OD610 at the start of the reaction was measured, then the plate was incubated at 37° C. for 48 h under anaerobic conditions. After that, the OD(610) was measured again for MIC determination, where MIC was defined as the lowest concentration of H2B10 where the OD was not or only slightly above the level measured at the beginning of the experiment.” for “above.”

In the next experiment the test system is G. vaginalis (Gv_9). Put plainly: MIC and MBC microbroth dilution. Type of experiment: cell-based, Gardnerella vaginalis. Conditions: for MIC / MBC: Gardnerella vaginalis; for MIC: 48 h. As for the experimental part:
as §1, §2, §3, §4

Experiment [1] relates to all tested Gardnerella strains. Kind of experiment: MIC and MBC microbroth dilution, stated over all tested strains. It counts as cell-based. Conditions: 48 h, first round: 2.5×10^7 CFU/ml, 48 h anaerobic (FIG. 14). As to the method:
as §1, with “At the end of the experiment, 2 ul of each reaction mix was spotted on agar to determine the MBC.” left out
as §2
Example 7—Activity assays of a representative (H2B10) of domain swapped endolysins on the growth in suspension of different Gardnerella strains. […] The conditions under which MBC was measured are more rigorous than the standard. […]
Bacteria were plated from cryo stock on BD Choc Agar plates (Gardnerella) and incubated at 37° C. for 48 h under anaerobic conditions. […] It has to be noted that two Tecan Microplate readers, having respectively a 610 nm or 620 nm filter, have been used interchangeably in the experiments. […]

For a further experiment, the system named is G. leopoldii (Gv_11). Put plainly: MIC and MBC microbroth dilution. Type of experiment: cell-based, Gardnerella leopoldii. Conditions: for MIC / MBC: Gardnerella leopoldii; for MIC: 48 h. As for the experimental part: as §1, §2, §3, §4
Where [2] appears, read: first round: 2.5×10^7 CFU/ml, Hardy broth, 384-well, 48 h 37° C. anaerobic.
Where [3] appears, read: first round: 2.5×10^7 CFU/ml, minimal concentration fully eradicating the suspension.
[4] abbreviates: second round: 1×10^5-1×10^6 CFU/ml (CLSI), NYC-III broth, 96-well, 48 h anaerobic.
Setting [5] is: second round: 1×10^5-1×10^6 CFU/ml (CLSI), NYC-III broth, 96-well.

Structures are written as SMILES. Converted amounts (≈) assume the structure as drawn. Structures can show the parent of a compound that is named as a salt.

Regarding `CCC[C@@H]1C[C@@H](C(=O)N[C@@H]([C@H]2O[C@H](SC)[C@H](O)[C@@H](O)[C@H]2O)[C@H](C)Cl)N(C)C1` [Clindamycin], the MIC (against G. swidsinskii (Gv_23) (setting [2]); with G. piotii (Gv_17) (setting [2]); against G. vaginalis (Gv_9) (setting [2]); in experiment [1]; in the experiment on G. leopoldii (Gv_11) (setting [2])) was 16 µg/mL (≈ 37.6 µM) each time. Further, the minimal bactericidal concentration (MBC) is above 128 µg/mL in the experiment on G. swidsinskii (Gv_23) (setting [3]), 64 µg/mL (≈ 151 µM) in the experiment on G. piotii (Gv_17) (setting [3]), 128 µg/mL (≈ 301 µM) in the experiment on G. vaginalis (Gv_9) (setting [3]) and 32 µg/mL (≈ 75.3 µM) in the experiment on G. leopoldii (Gv_11) (setting [3]). The “resistance class of MIC, Clindamycin” value in the experiment on G. swidsinskii (Gv_23) (first round), with G. piotii (Gv_17) (first round), with G. vaginalis (Gv_9) (first round) and in the experiment on G. leopoldii (Gv_11) (first round) was “R (>8 mg/mi for Clindamycin)” throughout.
With `CCC[C@@H]1C[C@@H](C(=O)N[C@@H]([C@H]2O[C@H](SC)[C@H](O)[C@@H](O)[C@H]2O)[C@H](C)Cl)N(C)C1` [Clindamycin hydrochloride], the minimum inhibitory concentration (MIC) was determined as 0.25 µg/mL against G. swidsinskii (Gv_23) (setting [4]), 0.25 µg/mL against G. piotii (Gv_17) (setting [4]), 0.25 µg/mL in the experiment on G. vaginalis (Gv_9) (setting [4]) and 0.5 µg/mL in the experiment on G. leopoldii (Gv_11) (setting [4]). Also, the MBC was 0.25 µg/mL in the experiment with G. swidsinskii (Gv_23) (setting [5]), 1 µg/mL with G. piotii (Gv_17) (setting [5]), 0.5 µg/mL against G. vaginalis (Gv_9) (setting [5]) and 1 µg/mL with G. leopoldii (Gv_11) (setting [5]).

Usually MIC stands for the least concentration at which growth counts as inhibited. A higher MIC goes with a need for much substance. As usually defined, the MBC is the smallest concentration meeting the test's criterion for killing. A higher MBC goes with less potent killing.
